The nature of this assay: qHTS Assay to Find Inhibitors of Chronic Active B-Cell Receptor Signaling. To be noted: ABC-DLBCL IkBa-CBG/CBR reporter, luminescence ratio (green luciferase fused to IkBa over red control in TMD8 lymphoma cells), 4 h. An outline of the steps:
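Compounds up to 46 uM were incubated four hours with TMD8 cells whose green CBG68 luciferase is fused to IkappaBalpha; red CBR luminescence normalised the signal, and concentration-effect curves were fitted to fusion, red and ratio data.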
Background: qHTS replaces the single test concentration by a dilution series.

The mark [1] stands for this setting: measured here: CBR red luminescence, cell number.
Setting [2] is: measured here: IkBa-CBG green luminescence.

The other results are listed elsewhere or left out. Shown are side measurements of this screen, not its main read-out; they come without a call. Most of these compounds were active or inconclusive in the main read-out, so they are no random draw. Potencies come from curve fits of mixed quality, noted in brackets.

Broadly, the AC50 is the concentration giving half of the maximal activity seen. As for `Cc1ccc2nc(-c3ccncc3)[nH]c2c1`, the AC50 under setting [1] was 8.91 µM [falling, partial curve, poor fit].
On to `Cc1cc(C)c(NN=c2c(=O)c3ccccc3c2=O)c(C)c1`, for which the half-maximal activity concentration (AC50) under setting [1] is 0.82 µM [rising, full curve].
For `COc1cc2c(cc1OC)C(=O)N1[C@H]3c4cc(C)ccc4OC[C@@H]3[C@H](c3ccccc3)[C@]1(C)C(=O)N2`, the AC50 under setting [1] is 32.6 µM [falling, partial curve, poor fit].
Still for that read-out and setting: the same measure for `COc1ccccc1/C=C1\SC(=S)N(CCC(=O)Nc2cccc(O)c2)C1=O`: 11.2 µM [falling, partial curve].
On to `C[C@@H](C(=O)NCCc1c[nH]c2ccccc12)[C@H]1C[C@]1(C)[C@H](NC(=O)OCc1ccccc1)c1ccccc1`, for which the half-maximal activity concentration (AC50) under setting [1] was 23.1 µM [falling, single point].
Regarding `CC(NC(=O)CSc1nnc(-c2cccnc2)n1N)c1ccccc1` (stereo unspecified), the AC50 under setting [1] was 5.62 µM [rising, single point].
In the case of `CN(CCC1CCOCC1)C(=O)CC1C(=O)NCCN1Cc1ccoc1` (stereo unspecified), the AC50 under setting [1] was 35.5 µM [rising, single point].
Turning to `CC(=O)N(C)c1ccc(NC(=O)Nc2ccc(C)cc2)cc1`, the AC50 under setting [1] is 20 µM [rising, single point].
On the same count and under the same terms, the same measure for `Cc1nnnn1/C(=C\c1ccccc1)C(=O)OCC(=O)Nc1cccc(S(=O)(=O)N(C)C)c1`: 2.31 µM [falling, full curve]; for `COc1cccc(CNc2ccc3[nH]c(=O)[nH]c3c2)c1OCc1ccccc1`: 11.2 µM [falling, partial curve].
Take `Brc1cc(Br)c(Oc2cc(Br)c(Br)cc2Br)cc1Br`: the half-maximal activity concentration (AC50) under setting [1] was 6.51 µM [falling, single point].
Consider `Cn1c(CO)cnc1SCc1ccc(Cl)cc1`, for which the AC50 under setting [1] was 3.98 µM [falling, partial curve].
Same read-out and setting: the value for `O=C(COC(=O)[C@H](Cc1ccccc1)NC(=O)c1cccs1)Nc1cc(F)ccc1F` was 1.84 µM [rising, partial curve].
As for `O=C(COCc1cc(-c2ccc(F)cc2)on1)Nc1cc(F)ccc1F`, the AC50 under setting [1] is 35.5 µM [falling, single point].
Consider `C/C(=N\NC(=O)COc1cc(C)cc(C)c1)c1ccc(N2CCOCC2)cc1`, for which the concentration at half-maximal activity (AC50) under setting [1] is 29.1 µM [falling, single point].
For the compound `Cc1nc(CSc2ccc(Cl)cc2)cs1`, the AC50 under setting [1] was 7.08 µM [rising, partial curve].
As for `O=C(Nc1cccc(F)c1)c1ccc(Br)o1`, the concentration at half-maximal activity (AC50) under setting [2] was 18.4 µM [rising, partial curve, poor fit].
Consider `COc1ccc(NC2CCCN(C(=O)CN3CCOC3=O)C2)cc1OC` (stereo unspecified), for which the AC50 under setting [1] was 25.1 µM [falling, partial curve, poor fit].
Regarding `Cc1ccccc1Nc1nc(N)nc(COC(=O)c2cccc(S(=O)(=O)NCc3ccccc3)c2)n1`, the half-maximal activity concentration (AC50) under setting [1] was 23.1 µM [falling, single point].
For `COc1ccccc1/C=C/C=N/NC(=O)c1cc(-c2ccco2)[nH]n1`, the half-maximal activity concentration (AC50) under setting [1] is 8.91 µM [falling, partial curve].
The same measure, in the same setting: the same measure for `O=[N+]([O-])c1ccc(-c2nnc(-c3ccccc3)c(N3CCOCC3)n2)cc1`: 18.4 µM [falling, partial curve]; for `CCC(CC)C1C(C#N)=C(N)SC(N)=C1C#N`: 29.1 µM [falling, single point].
In the case of `CCOC(=O)c1c(C)c(C(=O)NCC2CCCO2)c(C)n1C` (stereo unspecified), the concentration at half-maximal activity (AC50) under setting [1] was 0.517 µM [falling, partial curve, poor fit].
`Cc1csc(=O)n1CC(=O)OC(C)C(=O)Nc1cccc(Cl)c1` (stereo unspecified): under setting [1], the AC50 was 25.9 µM [rising, single point].
In the case of `Cc1nc(CN(C)C(=O)c2cc(COc3c(F)cccc3F)on2)cs1`, under setting [1], the half-maximal activity concentration (AC50) was 35.5 µM [falling, single point].
Regarding `COc1cc2c(cc1OC)C(c1ccccc1)CC2=O` (stereo unspecified), the AC50 under setting [1] was 12.6 µM [rising, single point].
As for `CCc1ccc(NC(=O)c2sc3nc4n(c(=O)c3c2C)CCC4)cc1`, the AC50 under setting [1] was 11.2 µM [rising, partial curve, poor fit].
Take `O=C(C1CCN(S(=O)(=O)c2cccc3nsnc23)CC1)N1CCn2c1nc1ccccc12`: the AC50 under setting [1] is 0.1 µM [rising, full curve, poor fit].
Consider `CCCCc1nnc(NC(=O)c2oc3ccccc3c2C)s1`, for which, under setting [1], the concentration at half-maximal activity (AC50) is 0.461 µM [rising, partial curve].
Regarding `COCCn1c(=NC(=O)c2ccc3c(c2)OCCO3)sc2cc(S(N)(=O)=O)ccc21`, the AC50 under setting [1] was 22.4 µM [rising, single point].
`COc1ccc(-c2sc(Nc3ccc(F)c(F)c3F)nc2CCC(=O)NN)cc1`: the AC50 under setting [1] is 5.62 µM [rising, single point].
As to `CSc1ccccc1OCc1cc(C(=O)NC(C)Cn2cncn2)no1` (stereo unspecified), the AC50 under setting [1] is 35.5 µM [falling, single point].
Turning to `CCCC1C2C(=O)N(c3ccccc3OCC)C(=O)C2ON1c1ccccc1` (stereo unspecified), the AC50 under setting [1] was 0.146 µM [falling, full curve, poor fit].
`CCNC(=O)/C(C#N)=C/c1c(N2CCN(c3ccccc3)CC2)nc2ccccn2c1=O`: under setting [1], the AC50 was 6.31 µM [rising, full curve].
`CCOC(=O)c1cnn(-c2cc(Oc3cccc(C)c3)ncn2)c1N`: the concentration at half-maximal activity (AC50) under setting [1] was 10.3 µM [rising, partial curve, poor fit].
Regarding `O=C(NCC(c1ccco1)N1CCN(c2ccc(F)cc2)CC1)C(=O)NC1CCCC1` (stereo unspecified), the half-maximal activity concentration (AC50) under setting [1] is 16.4 µM [rising, partial curve, poor fit].
As to `Oc1ccc(C2C(c3ccccc3)=NN=C(c3ccc(Cl)cc3)N2O)c(O)c1` (stereo unspecified), under setting [1], the half-maximal activity concentration (AC50) is 4.61 µM [falling, partial curve].
On to `Cc1cc(C)n(-c2ccc(C(=O)OC(C)C)cc2)n1`, for which, under setting [1], the half-maximal activity concentration (AC50) is 35.5 µM [falling, single point].
With `O=C(c1ccco1)N1CCN=C1SCc1c(F)cccc1Cl`, the half-maximal activity concentration (AC50) under setting [1] was 7.94 µM [falling, partial curve].
`CS(=O)(=O)c1ccc(-c2csc(-c3cccnc3)n2)cc1`: the concentration at half-maximal activity (AC50) under setting [1] is 1.26 µM [rising, full curve, poor fit].
Turning to `O=C(NCC(c1ccco1)N1CCCC1)c1cc2cc(Cl)ccc2o1` (stereo unspecified), under setting [1], the AC50 was 6.51 µM [rising, single point].
As for `O=C(COc1ccccc1O)N1CCN(C(=O)c2ccco2)CC1`, under setting [1], the AC50 was 16.4 µM [rising, single point].
`COc1cc(C(C(=O)NC2CCCCC2)N(Cc2cccs2)C(=O)Cc2c[nH]c3ccccc23)cc(OC)c1OC` (stereo unspecified): the AC50 under setting [1] was 0.112 µM [rising, full curve, poor fit].
In the case of `O=C1CN(C(=O)c2ccccc2[N+](=O)[O-])C(c2ccccc2)c2cc(Br)ccc2N1` (stereo unspecified), the half-maximal activity concentration (AC50) under setting [1] was 10 µM [falling, partial curve].
On to `S=C(c1cn(CCOc2ccccc2)c2ccccc12)N1CCCC1`, for which the AC50 under setting [1] was 32.6 µM [falling, single point].
`CN1CCN(CC(=O)N2c3ccccc3C(C)(c3ccc(Cl)cc3)CC2(C)C)CC1` (stereo unspecified): the half-maximal activity concentration (AC50) under setting [1] is 23.1 µM [falling, single point].
On the same count and under the same terms, the same measure for `Cc1cc(OCCSc2nnc(-c3cccs3)n2C)ccc1Cl`: 35.5 µM [falling, single point].
The same measure, in the same setting: the same measure for `CCCN1C(=O)/C(=N\OCC(=O)Nc2ccc(C(C)C)cc2)c2ccccc21`: 29.1 µM [falling, single point]; for `COc1ccc2oc(-c3cccc(NC(=O)CSc4ccc(Cl)cc4)c3)nc2c1`: 16.4 µM [rising, partial curve, poor fit]; for `O=C(O)C1CCCN1c1ncnc2ccccc12` (stereo unspecified): 6.51 µM [falling, single point].
`O=C1N2CCSC2=NC1(Nc1ccccn1)C(F)(F)F` (stereo unspecified): under setting [1], the half-maximal activity concentration (AC50) was 35.5 µM [falling, single point].
On the same count and under the same terms, the same measure for `O=C(NNc1ccccc1[N+](=O)[O-])Nc1cccc(Cl)c1`: 35.5 µM [falling, single point]; for `O=C(NCc1cccs1)C1CCCN(S(=O)(=O)c2cnc[nH]2)C1` (stereo unspecified): 0.461 µM [falling, full curve, poor fit]; for `NC(=O)COC(=O)c1cc(-c2ccco2)nc2ccccc12`: 10 µM [falling, partial curve, poor fit].
As for `O=C(CSc1ncn[nH]1)Nc1nsc(-c2ccccc2)n1`, the half-maximal activity concentration (AC50) under setting [1] is 20.6 µM [falling, partial curve].
For the compound `Cc1c(Br)c(=O)oc2c(Br)c(O)ccc12`, the AC50 under setting [1] was 0.112 µM [falling, full curve, poor fit].
For the compound `COc1ccc(C(NC(=O)c2c(F)c(F)c(F)c(F)c2F)c2ccccc2)cc1` (stereo unspecified), the AC50 under setting [1] is 18.4 µM [falling, partial curve].
Consider `COc1ccc(S(=O)(=O)N(CC(=O)NCc2ccco2)c2ccccc2)cc1`, for which the half-maximal activity concentration (AC50) under setting [1] is 23.1 µM [falling, partial curve, poor fit].
Same read-out and setting: the same measure for `CCCCNCCOc1ccccc1-c1ccccc1`: 32.6 µM [falling, partial curve, poor fit].
As for `COc1ccc(C)cc1NC(=O)NC1CCN(Cc2ccccc2)CC1`, the half-maximal activity concentration (AC50) is 6.51 µM [rising, partial curve, poor fit] under setting [1] and 6.51 µM [falling, single point] under setting [2].
Take `Cn1cc(Cl)c(/C=C(\C#N)S(=O)(=O)c2ccccc2)n1`: the concentration at half-maximal activity (AC50) under setting [1] was 0.251 µM [falling, full curve, poor fit].
Consider `COc1cc2c(cc1NC(=O)c1ccco1)CCCC2`, for which the AC50 under setting [1] is 2.59 µM [rising, full curve, poor fit].
In the case of `Nc1nnc(SCCCOc2ccc(F)cc2)s1`, under setting [1], the AC50 was 5.62 µM [falling, full curve].
Regarding `CCOc1ccc(CN2C(=O)c3ccccc3C2C(=O)NCc2cccnc2)cc1` (stereo unspecified), the concentration at half-maximal activity (AC50) under setting [1] was 13 µM [falling, partial curve, poor fit].
For `Cc1nc(SCCOc2ccccc2F)[nH]c(=O)c1Cc1ccccc1`, under setting [2], the AC50 is 3.55 µM [rising, partial curve, poor fit].
